Measurements: the supplement of paper PMC10849652
The list shows a part of the results.

The chains behind the UniProt entries cited, without tags or fusion partners. Where a name states a change or a piece, a line headed by the entry shows the natural chain unless it says otherwise.
UniProt O95140: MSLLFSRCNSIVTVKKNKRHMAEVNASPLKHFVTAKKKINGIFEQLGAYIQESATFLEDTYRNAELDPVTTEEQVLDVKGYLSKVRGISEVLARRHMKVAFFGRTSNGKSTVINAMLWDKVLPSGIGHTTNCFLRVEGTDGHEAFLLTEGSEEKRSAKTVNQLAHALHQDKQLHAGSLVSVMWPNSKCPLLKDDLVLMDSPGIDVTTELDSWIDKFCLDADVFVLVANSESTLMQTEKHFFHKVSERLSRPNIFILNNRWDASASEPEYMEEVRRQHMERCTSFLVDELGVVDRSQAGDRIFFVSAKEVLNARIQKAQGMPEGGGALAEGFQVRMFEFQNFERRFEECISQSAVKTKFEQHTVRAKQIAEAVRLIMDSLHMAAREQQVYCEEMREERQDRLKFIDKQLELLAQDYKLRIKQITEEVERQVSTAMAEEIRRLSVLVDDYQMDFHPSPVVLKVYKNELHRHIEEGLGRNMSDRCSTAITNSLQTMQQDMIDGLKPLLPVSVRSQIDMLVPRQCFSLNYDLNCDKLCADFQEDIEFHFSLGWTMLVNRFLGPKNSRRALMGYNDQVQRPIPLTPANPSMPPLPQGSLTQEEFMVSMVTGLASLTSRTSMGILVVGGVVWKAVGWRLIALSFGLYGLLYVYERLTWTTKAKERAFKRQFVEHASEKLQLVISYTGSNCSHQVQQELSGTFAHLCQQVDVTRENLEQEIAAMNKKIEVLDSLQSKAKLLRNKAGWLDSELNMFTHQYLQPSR
UniProt Q6P2C8: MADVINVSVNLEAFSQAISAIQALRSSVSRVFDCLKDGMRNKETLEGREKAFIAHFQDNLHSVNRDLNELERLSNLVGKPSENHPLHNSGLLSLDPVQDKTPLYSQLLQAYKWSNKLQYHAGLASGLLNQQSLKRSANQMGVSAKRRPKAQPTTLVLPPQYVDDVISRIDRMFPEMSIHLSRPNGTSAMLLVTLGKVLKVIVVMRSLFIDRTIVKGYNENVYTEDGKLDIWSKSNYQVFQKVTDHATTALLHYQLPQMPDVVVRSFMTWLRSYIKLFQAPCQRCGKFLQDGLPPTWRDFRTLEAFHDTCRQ
UniProt Q02078: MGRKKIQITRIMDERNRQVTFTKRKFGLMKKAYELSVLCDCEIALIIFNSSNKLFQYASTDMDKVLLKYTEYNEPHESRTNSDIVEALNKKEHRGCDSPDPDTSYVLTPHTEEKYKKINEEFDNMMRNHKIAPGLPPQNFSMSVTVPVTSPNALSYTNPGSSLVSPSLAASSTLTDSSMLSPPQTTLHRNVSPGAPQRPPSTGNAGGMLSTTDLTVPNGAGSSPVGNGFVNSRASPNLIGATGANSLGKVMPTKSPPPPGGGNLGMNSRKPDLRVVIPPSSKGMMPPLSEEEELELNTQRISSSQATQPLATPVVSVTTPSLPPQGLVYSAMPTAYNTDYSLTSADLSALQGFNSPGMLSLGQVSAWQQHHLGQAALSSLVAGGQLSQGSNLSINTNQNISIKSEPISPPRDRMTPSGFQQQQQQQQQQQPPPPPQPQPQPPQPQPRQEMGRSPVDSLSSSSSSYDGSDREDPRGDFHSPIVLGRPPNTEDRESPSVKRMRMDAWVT
UniProt O95402: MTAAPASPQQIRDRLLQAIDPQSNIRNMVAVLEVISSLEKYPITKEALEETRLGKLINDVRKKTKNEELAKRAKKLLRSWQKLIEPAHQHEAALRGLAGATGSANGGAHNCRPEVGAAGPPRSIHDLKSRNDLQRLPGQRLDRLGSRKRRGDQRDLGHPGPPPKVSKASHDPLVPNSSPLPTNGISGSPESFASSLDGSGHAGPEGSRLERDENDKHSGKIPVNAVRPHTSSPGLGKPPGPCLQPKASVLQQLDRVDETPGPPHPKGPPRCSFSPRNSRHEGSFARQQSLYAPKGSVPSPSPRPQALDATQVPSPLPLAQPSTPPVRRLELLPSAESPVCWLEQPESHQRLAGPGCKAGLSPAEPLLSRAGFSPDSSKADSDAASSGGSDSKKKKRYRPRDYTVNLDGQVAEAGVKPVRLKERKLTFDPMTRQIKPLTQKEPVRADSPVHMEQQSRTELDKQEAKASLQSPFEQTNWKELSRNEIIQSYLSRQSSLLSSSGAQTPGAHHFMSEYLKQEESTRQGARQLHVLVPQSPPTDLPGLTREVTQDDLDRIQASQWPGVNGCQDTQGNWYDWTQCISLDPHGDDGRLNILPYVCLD
UniProt Q9BTT4: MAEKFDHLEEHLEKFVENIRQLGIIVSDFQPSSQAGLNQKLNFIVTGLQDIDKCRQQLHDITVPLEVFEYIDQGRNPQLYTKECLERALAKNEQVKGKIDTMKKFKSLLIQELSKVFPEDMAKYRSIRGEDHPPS
UniProt Q15648, whole entry, looked up: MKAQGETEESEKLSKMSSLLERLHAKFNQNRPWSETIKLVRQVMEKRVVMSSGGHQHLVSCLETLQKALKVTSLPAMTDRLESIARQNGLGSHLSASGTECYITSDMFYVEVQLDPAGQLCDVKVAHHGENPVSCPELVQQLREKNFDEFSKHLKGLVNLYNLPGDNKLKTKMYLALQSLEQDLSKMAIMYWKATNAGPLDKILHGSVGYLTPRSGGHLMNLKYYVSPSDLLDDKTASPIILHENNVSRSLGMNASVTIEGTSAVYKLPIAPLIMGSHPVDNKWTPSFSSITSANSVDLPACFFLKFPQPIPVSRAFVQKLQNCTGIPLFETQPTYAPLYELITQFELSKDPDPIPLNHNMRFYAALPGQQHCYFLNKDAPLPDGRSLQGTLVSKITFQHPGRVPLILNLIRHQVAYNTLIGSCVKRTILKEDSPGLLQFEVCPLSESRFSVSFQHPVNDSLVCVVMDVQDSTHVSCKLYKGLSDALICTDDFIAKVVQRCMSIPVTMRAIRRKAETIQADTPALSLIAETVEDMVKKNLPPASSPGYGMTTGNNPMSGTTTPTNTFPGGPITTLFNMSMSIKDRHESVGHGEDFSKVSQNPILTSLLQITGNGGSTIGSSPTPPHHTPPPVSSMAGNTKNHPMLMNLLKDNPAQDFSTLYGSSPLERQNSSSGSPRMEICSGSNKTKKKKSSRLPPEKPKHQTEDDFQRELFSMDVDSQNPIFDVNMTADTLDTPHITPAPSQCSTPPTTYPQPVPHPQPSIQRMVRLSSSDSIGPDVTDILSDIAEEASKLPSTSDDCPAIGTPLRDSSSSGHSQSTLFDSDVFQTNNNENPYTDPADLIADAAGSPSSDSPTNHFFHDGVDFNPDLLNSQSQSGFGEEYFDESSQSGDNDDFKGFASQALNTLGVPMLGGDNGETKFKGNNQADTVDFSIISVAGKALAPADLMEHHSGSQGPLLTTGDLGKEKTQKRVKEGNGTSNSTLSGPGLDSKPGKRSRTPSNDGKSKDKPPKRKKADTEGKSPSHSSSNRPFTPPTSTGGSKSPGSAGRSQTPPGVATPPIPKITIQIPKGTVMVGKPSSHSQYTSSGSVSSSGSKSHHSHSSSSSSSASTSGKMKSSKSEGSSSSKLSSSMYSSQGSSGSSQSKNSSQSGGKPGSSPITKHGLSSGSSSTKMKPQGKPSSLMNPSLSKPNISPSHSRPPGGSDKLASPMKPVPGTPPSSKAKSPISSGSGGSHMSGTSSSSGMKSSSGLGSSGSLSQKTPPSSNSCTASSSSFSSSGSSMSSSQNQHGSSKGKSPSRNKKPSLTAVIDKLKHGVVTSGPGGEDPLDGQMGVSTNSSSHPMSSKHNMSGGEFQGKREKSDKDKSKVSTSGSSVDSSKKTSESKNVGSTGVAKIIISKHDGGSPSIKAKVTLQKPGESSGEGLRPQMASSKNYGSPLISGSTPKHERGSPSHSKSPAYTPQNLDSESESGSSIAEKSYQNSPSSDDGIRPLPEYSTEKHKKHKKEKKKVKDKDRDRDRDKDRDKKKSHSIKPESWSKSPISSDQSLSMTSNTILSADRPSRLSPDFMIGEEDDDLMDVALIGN
UniProt A0JLT2: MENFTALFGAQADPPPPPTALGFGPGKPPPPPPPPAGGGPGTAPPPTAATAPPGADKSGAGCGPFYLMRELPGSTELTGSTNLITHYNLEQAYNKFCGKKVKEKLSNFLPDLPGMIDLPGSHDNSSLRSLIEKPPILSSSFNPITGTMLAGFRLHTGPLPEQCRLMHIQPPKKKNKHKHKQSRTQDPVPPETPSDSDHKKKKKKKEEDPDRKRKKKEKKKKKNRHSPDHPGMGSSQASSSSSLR
UniProt P08582: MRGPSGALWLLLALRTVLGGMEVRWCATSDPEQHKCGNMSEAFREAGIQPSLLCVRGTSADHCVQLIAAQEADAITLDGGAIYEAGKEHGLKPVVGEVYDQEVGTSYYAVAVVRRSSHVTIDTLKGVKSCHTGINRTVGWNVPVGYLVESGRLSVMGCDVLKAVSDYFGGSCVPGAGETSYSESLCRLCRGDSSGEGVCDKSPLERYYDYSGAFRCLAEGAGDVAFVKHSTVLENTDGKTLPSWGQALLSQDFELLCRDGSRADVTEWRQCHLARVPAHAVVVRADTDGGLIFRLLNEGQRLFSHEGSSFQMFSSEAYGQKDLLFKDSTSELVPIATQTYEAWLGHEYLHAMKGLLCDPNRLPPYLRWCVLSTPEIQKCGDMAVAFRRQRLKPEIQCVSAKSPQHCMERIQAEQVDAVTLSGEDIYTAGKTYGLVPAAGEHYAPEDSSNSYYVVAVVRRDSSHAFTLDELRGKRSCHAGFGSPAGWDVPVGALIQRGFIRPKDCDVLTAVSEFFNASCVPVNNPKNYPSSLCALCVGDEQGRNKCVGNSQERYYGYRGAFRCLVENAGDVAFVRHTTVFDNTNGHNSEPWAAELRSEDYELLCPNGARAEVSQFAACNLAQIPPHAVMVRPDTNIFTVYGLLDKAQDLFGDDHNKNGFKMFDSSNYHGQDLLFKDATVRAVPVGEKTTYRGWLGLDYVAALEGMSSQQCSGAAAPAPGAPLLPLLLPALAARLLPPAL
UniProt Q8NI22: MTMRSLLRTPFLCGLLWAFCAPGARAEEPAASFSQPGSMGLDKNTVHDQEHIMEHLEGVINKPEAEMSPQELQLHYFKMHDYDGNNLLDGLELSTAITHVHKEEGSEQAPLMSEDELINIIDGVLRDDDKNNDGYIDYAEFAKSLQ
UniProt Q6P9B6: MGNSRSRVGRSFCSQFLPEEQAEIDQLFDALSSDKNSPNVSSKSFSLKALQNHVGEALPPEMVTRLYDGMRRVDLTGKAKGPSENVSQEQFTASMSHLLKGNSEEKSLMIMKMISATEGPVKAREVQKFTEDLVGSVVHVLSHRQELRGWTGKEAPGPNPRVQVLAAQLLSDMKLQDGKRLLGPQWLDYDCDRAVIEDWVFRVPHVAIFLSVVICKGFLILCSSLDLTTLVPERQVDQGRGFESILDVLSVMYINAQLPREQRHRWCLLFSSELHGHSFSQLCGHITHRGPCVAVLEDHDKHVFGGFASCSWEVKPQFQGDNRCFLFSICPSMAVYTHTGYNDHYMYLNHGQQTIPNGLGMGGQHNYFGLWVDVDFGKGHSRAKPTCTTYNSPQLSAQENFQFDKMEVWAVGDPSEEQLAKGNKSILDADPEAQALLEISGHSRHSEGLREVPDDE
UniProt Q06413, whole entry, looked up: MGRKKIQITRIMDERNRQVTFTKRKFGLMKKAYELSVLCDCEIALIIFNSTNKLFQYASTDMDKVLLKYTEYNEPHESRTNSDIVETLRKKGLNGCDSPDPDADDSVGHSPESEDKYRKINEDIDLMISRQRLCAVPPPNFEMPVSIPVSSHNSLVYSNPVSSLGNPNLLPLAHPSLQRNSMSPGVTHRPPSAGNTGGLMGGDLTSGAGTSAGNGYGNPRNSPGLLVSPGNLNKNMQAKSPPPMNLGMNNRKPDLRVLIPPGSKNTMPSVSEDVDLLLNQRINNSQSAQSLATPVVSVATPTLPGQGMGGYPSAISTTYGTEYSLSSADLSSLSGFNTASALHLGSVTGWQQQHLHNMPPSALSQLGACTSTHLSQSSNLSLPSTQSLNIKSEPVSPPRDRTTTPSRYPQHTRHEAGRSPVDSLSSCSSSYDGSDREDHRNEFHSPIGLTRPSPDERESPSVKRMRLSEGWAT
UniProt Q68D91: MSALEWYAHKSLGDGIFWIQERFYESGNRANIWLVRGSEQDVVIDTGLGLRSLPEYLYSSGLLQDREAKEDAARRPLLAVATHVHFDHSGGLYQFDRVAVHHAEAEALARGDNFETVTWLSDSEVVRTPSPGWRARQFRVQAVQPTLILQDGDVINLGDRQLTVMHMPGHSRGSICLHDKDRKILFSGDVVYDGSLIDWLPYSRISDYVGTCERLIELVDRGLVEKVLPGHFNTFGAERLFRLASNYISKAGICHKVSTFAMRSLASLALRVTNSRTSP
UniProt Q6UB28: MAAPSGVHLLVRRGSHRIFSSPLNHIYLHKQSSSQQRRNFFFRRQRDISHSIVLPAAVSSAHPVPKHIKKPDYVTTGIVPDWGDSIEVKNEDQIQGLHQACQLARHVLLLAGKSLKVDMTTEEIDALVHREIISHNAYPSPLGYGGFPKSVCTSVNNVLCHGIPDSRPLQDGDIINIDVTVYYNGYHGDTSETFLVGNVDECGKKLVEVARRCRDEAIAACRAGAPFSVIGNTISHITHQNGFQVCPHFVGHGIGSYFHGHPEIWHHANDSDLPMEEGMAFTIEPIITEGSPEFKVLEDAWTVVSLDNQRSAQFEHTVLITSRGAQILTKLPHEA

Compound: Cc1sc2c(c1C)C(c1ccc(Cl)cc1)=N[C@@H](CC(=O)OC(C)(C)C)c1nnc(C)n1-2
Experiment: log2 fold change, soluble protein after heating vs DMSO (PISA); higher = thermal stabilisation; K562 lysate, 10 uM; active = over 0.2 and 3.5 SD of the protein, either way, in both replicates (recomputed)
Summary of the method: (§1)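 Values give the log-two fold change in thermal stability against solvent controls, from duplicates. Crude K562 extract at 1 mg/mL protein, made by dounce homogenisation in PBS pH 7.4 with 1 mM MgCl2, was treated with 10 μM compound for 30 min. After 3 min heating across 48°C-58°C, aliquots were pooled, adjusted to 0.5% NP-40 at 4°C and centrifuged at 21,000xg for 90 min. The supernatant was measured by TMTpro 16plex LC-MS/MS with channel sums equalised.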

Target | log2 fold change
MAT2B (UniProt Q9NZL9) | inactive: -0.003
MED6 (UniProt O75586) | inactive: -0.268
MEPCE (UniProt Q7L2J0) | inactive: 0.031
MFN2 (UniProt O95140) | inactive: 0.016
MED13L (UniProt Q71F56) | inactive: -0.095
MDH2 (UniProt P40926) | inactive: 0.005
METTL18 (UniProt O95568) | inactive: -0.035
MEX3B (UniProt Q6ZN04) | inactive: -0.198

Compound: c1ccc([C@@H]2C[C@H]2NC2CCNCC2)cc1
Experiment: as above
Summary of the method: as §1

Target | log2 fold change
MBOAT2 (UniProt Q6ZWT7) | inactive: -0.017
MCUR1 (UniProt Q96AQ8) | inactive: 0.01
MED27 (UniProt Q6P2C8) | inactive: 0.008
MFSD5 isoform 2 (UniProt Q6N075) | inactive: -0.162
MED12 isoform 2 (UniProt Q93074) | inactive: 0.031
MEF2A isoform 2 (UniProt Q02078) | inactive: -0.022
MED26 (UniProt O95402) | inactive: -0.076
MED10 (UniProt Q9BTT4) | inactive: -0.009
MED1 (UniProt Q15648) | inactive: 0.003
MCM6 (UniProt Q14566) | inactive: -0.002
MCCC2 (UniProt Q9HCC0) | inactive: 0.002
MED19 (UniProt A0JLT2) | inactive: 0.054
MELTF (UniProt P08582) | inactive: 0.032
MDC1 (UniProt Q14676) | inactive: 0.026
MEA1 (UniProt Q16626) | inactive: -0.025
METAP1 (UniProt P53582) | inactive: -0.095
MCFD2 (UniProt Q8NI22) | inactive: 0.051
MEAK7 (UniProt Q6P9B6) | inactive: 0.019
MERTK (UniProt Q12866) | inactive: -0.043

Target | log2 fold change
MFSD8 (UniProt Q8NHS3) | inactive: -0.069
MDM2 isoform 11 (UniProt Q00987) | inactive: -0.158
METTL5 (UniProt Q9NRN9) | inactive: -0.035
MEF2C isoform 5 (UniProt Q06413) | inactive: -0.017
MBLAC2 (UniProt Q68D91) | inactive: -0.033
METAP1D (UniProt Q6UB28) | inactive: -0.007
MED13 (UniProt Q9UHV7) | inactive: 0.074
MATR3 (UniProt P43243) | inactive: -0.042
MCAM (UniProt P43121) | inactive: -0.019
MAT2B (UniProt Q9NZL9) | inactive: -0.002
MED6 (UniProt O75586) | inactive: 0.009
MEPCE (UniProt Q7L2J0) | inactive: 0.018
MFN2 (UniProt O95140) | inactive: 0.101
MED13L (UniProt Q71F56) | inactive: 0.014
MAU2 (UniProt Q9Y6X3) | inactive: 0.169
MDH2 (UniProt P40926) | inactive: 0.049
METTL18 (UniProt O95568) | inactive: -0.077
MCRS1 isoform 2 (UniProt Q96EZ8) | inactive: 0.065
MEX3B (UniProt Q6ZN04) | inactive: 0.109
